Test [1] addresses Urokinase-type plasminogen activator receptor (PLAUR) (human (endogenous in HeLa)) (UniProt Q03405). The test is described as follows: co-IP; HeLa cell lysates, untreated or after induction of DNA damage (Dox); lysis in 20 mM Tris pH 7.4, 150 mM NaCl, 10 mM MgCl2, 2 mM EDTA, 10% glycerol, 1% Triton X-100; 1000 ug lysate with 4 ug PLAUR (C-16) or TLR4 (H-80) antibody and Protein A/G PLUS agarose; western blotting; PLAUR/TLR4 also repeated in the reverse direction.

Chains of the proteins cited; added tags and fusions are not shown. Residues count along the entry.
UniProt Q03405, residues 23-305: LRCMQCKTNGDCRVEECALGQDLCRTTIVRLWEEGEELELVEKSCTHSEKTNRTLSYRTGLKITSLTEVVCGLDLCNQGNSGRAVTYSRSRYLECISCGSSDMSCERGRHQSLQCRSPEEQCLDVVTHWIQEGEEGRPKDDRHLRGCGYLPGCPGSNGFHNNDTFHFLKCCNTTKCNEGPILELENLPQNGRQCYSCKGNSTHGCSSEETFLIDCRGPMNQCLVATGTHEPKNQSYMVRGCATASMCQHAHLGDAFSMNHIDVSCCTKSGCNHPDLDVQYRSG
UniProt O00206, residues 24-839: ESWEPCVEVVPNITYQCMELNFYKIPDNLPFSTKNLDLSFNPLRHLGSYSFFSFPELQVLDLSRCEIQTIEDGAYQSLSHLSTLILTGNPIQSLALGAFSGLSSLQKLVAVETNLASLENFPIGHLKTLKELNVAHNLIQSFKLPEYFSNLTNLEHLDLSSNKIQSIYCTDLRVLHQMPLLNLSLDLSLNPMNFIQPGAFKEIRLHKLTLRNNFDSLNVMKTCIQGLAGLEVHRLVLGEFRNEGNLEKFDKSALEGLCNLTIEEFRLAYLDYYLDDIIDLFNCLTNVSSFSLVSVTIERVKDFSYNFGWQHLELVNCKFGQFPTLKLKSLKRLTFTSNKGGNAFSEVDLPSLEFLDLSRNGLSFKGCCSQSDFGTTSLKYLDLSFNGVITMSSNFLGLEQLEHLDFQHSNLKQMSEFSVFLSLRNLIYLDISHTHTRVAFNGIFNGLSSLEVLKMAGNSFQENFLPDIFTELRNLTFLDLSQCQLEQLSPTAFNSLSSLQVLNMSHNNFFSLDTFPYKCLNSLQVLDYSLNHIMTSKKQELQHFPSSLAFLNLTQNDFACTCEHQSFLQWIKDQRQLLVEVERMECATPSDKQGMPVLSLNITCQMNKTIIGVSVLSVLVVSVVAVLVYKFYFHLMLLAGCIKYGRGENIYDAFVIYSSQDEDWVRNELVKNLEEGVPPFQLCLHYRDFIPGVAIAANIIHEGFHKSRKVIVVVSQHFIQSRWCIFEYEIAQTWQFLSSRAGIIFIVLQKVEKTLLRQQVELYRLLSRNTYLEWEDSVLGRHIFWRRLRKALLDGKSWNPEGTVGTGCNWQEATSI

The target is the same in test [2]. Kind of test: proximity ligation; Duolink in situ proximity ligation assay on fixed HeLa cells, untreated or irradiated at 9 Gy and fixed at the indicated time points; signals per cell counted with ImageJ.

These are yes or no findings as the source states them, for the method shown. Binding seen in cells or lysates may run through a third protein. Some binding calls cover weakened binding; strength is not graded here.

Turning to “toll-like receptor 4 (TLR4) (from UniProt O00206 24-839)”, the binding entry in test [1] and in test [2] was “binds” in each case.

B1: TLR1 (receptor, UniProt Q15399 25-786)
chain: SEFLVDRSKNGLIHVPKDLSQKTTILNISQNYISELWTSDILSLSKLRILIISHNRIQYLDISVFKFNQELEYLDLSHNKLVKISCHPTVNLKHLDLSFNAFDALPICKEFGNMSQLKFLGLSTTHLEKSSVLPIAHLNISKVLLVLGETYGEKEDPEGLQDFNTESLHIVFPTNKEFHFILDVSVKTVANLELSNIKCVLEDNKCSYFLSILAKLQTNPKLSNLTLNNIETTWNSFIRILQLVWHTTVWYFSISNVKLQGQLDFRDFDYSGTSLKALSIHQVVSDVFGFPQSYIYEIFSNMNIKNFTVSGTRMVHMLCPSKISPFLHLDFSNNLLTDTVFENCGHLTELETLILQMNQLKELSKIAEMTTQMKSLQQLDISQNSVSYDEKKGDCSWTKSLLSLNMSSNILTDTIFRCLPPRIKVLDLHSNKIKSIPKQVVKLEALQELNVAFNSLTDLPGCGSFSSLSVLIIDHNSVSHPSADFFQSCQKMRSIKAGDNPFQCTCELGEFVKNIDQVSSEVLEGWPDSYKCDYPESYRGTLLKDFHMSELSCNITLLIVTIVATMLVLAVTVTSLCSYLDLPWYLRMVCQWTQTRRRARNIPLEELQRNLQFHAFISYSGHDSFWVKNELLPNLEKEGMQICLHERNFVPGKSIVENIITCIEKSYKSIFVLSPNFVQSEWCHYELYFAHHNLFHEGSNSLILILLEPIPQYSIPSSYHKLKSLMARRTYLEWPKEKSKRGLFWANLRAAINIKLTEQAKK
B1: in test [1], the binding result is given as “binds”.

The values are drawn from paper PMC5059885.
